No constants are given. Whether binding was seen depends on the method and setting. In cells and extracts the contact can be indirect. Some binding calls cover weakened binding; strength is not graded here.

We go through one molecule from PMC7968321.

The test has as its target T1, Human lemur tyrosine kinase 3 (LMTK3) (human) (UniProt Q96Q04).
T1 sequence: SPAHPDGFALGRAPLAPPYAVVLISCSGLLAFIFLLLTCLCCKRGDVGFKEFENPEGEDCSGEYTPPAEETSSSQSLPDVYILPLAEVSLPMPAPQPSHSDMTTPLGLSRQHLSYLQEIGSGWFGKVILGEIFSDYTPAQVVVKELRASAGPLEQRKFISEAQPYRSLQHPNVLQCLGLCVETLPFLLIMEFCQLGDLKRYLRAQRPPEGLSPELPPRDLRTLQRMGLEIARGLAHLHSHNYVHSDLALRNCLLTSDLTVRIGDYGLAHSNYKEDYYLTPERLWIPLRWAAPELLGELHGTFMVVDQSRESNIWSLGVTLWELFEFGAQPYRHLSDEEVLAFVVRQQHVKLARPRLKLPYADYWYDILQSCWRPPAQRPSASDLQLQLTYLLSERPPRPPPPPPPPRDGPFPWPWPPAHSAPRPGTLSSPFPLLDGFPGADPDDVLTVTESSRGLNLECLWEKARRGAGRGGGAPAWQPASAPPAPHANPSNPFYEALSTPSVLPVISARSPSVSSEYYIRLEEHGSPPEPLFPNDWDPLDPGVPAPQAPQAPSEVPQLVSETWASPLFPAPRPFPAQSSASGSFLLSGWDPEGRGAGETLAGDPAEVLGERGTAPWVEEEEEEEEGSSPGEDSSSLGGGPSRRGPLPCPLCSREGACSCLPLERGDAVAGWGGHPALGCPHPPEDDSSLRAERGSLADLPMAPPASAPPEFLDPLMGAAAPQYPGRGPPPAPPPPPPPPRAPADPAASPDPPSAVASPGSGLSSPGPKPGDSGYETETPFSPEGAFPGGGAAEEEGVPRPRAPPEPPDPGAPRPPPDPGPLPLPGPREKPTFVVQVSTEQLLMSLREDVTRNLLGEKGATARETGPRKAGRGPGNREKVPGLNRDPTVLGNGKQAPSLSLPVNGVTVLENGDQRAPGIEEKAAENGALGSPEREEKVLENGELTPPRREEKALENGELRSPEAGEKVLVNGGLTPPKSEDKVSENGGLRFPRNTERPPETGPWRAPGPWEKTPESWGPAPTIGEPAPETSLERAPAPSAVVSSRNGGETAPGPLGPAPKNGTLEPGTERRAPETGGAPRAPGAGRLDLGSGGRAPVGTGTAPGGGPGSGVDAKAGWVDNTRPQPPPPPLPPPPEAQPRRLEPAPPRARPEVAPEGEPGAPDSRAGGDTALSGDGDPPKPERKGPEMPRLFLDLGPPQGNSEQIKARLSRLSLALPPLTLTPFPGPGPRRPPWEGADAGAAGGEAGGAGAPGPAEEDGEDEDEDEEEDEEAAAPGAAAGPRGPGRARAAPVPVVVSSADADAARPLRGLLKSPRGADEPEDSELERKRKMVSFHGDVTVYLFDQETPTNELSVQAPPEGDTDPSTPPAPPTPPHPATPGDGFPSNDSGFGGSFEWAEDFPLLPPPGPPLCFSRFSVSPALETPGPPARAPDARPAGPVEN
The test can be described thus: co-IP; LMTK3 or NUSAP1 immunoprecipitated from MCF7 cells stably overexpressing LMTK3; complexes immunoblotted for LMTK3 and NUSAP1. In general terms: In western blotting, separated proteins are transferred to a membrane and probed.

B1: Nucleolar and spindle associated protein 1 (NUSAP1) (protein, UniProt Q9BXS6 1-441)
chain: MIIPSLEELDSLKYSDLQNLAKSLGLRANLRATKLLKALKGYIKHEARKGNENQDESQTSASSCDETEIQISNQEEAERQPLGHVTKTRRRCKTVRVDPDSQQNHSEIKISNPTEFQNHEKQESQDLRATAKVPSPPDEHQEAENAVSSGNRDSKVPSEGKKSLYTDESSKPGKNKRTAITTPNFKKLHEAHFKEMESIDQYIERKKKHFEEHNSMNELKQQPINKGGVRTPVPPRGRLSVASTPISQRRSQGRSCGPASQSTLGLKGSLKRSAISAAKTGVRFSAATKDNEHKRSLTKTPARKSAHVTVSGGTPKGEAVLGTHKLKTITGNSAAVITPFKLTTEATQTPVSNKKPVFDLKASLSRPLNYEPHKGKLKPWGQSKENNYLNQHVNRINFYKKTYKQPHLQTKEEQRKKREQERKEKKAKVLGMRRGLILAED
Regarding B1, the binding result is recorded as “binds”.
